Construct, isoform or probe ends are uncertain for at least one entry. A weaker result is weaker than the reference pair of the same experiment. At least one verdict rests on a figure or table, not on a statement of the authors.
Molecular target: human cGAS (Homo sapiens) (UniProt Q8N884)
Assay: EMSA
Details: 1 uM DNA, 0-5 uM cGAS, EMSA: 1 uM DNA, 20 mM Tris-HCl pH 8.0 (4 C), 200 mM NaCl, on ice 30 min, 8% native PAGE in 25 mM Tris-HCl pH 8.5, 190 mM glycine, ethidium bromide stain, recombinant protein, residues 1-522

Chains of the proteins cited; added tags and fusions are not shown.
UniProt Q8N884, whole entry: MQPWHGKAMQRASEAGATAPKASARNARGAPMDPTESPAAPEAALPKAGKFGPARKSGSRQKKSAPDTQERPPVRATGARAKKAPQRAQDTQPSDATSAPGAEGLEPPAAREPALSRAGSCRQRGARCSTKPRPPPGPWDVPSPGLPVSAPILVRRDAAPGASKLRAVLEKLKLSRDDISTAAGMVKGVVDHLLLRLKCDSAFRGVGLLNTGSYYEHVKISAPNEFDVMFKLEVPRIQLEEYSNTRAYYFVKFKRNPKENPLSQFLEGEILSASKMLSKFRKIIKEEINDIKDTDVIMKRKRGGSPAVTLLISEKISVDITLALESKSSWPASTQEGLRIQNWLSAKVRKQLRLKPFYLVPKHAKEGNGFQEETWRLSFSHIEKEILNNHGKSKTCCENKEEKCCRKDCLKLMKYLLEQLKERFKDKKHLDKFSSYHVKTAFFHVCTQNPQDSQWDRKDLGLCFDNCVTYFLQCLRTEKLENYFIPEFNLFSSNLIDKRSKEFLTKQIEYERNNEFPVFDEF

| Sequence | binding result |
| --- | --- |
| GAACTCCAGCAGGACCATTGGGG / GGGCAATGGTCCTGCTGGAGTTC [3'5'-G3 Y-form DNA] | binds more weakly |
| GAACTCCAGCAGGACCATTGGGG / CAATGGTCCTGCTGGAGTTCGGG [3'3'-G3 Y-form DNA] | binds more weakly |
| GGGGAACTCCAGCAGGACCATTG / CAATGGTCCTGCTGGAGTTCGGG [5'3'-G3 Y-form DNA] | binds more weakly |
| GGGGAACTCCAGCAGGACCATTG / GGGCAATGGTCCTGCTGGAGTTC [5'5'-G3 Y-form DNA] | binds more weakly |

Same assay, conditions: 1 uM DNA, 3 uM cGAS; EMSA: 1 uM DNA, 0-5 uM cGAS, 20 mM Tris-HCl pH 8.0 (4 C), 200 mM NaCl, on ice 30 min; 8% native PAGE in 25 mM Tris-HCl pH 8.5, 190 mM glycine; ethidium bromide stain; recombinant protein; residues 1-522

| Sequence | binding signal (% unbound DNA at cGAS/DNA ratio 3) |
| --- | --- |
| GGCGAACTCCAGCAGGACCATTGCGG / GGCCAATGGTCCTGCTGGAGTTCCGG [GGC Y-form DNA] | > 60 |
| CGGGAACTCCAGCAGGACCATTGGGC / CGGCAATGGTCCTGCTGGAGTTCGGC [CGG Y-form DNA] | > 60 |
| GCGGAACTCCAGCAGGACCATTGGCG / GCGCAATGGTCCTGCTGGAGTTCGCG [GCG Y-form DNA] | > 60 |
| CCCGAACTCCAGCAGGACCATTGCCC / CCCCAATGGTCCTGCTGGAGTTCCCC [C3 Y-form DNA] | > 60 |
